Reference: the supplement of paper PMC12578635
Some of the results follow. Rule as the data show it: active = 150% or more and inactive = the rest. Single values are uncertain, as repeats are few or missing.

Test system: Staphylococcus aureus JE2-lux inside RAW 264.7 macrophages
Experiment: intracellular bacterial bioluminescence relative to DMSO vehicle; higher = higher intracellular bacterial metabolic activity
Settings: 10 µM; treatment time 4 h; gentamicin 50 µg/ml

Intracellular bacterial bioluminescence, inactive:
Cc1cc(C)cc(-n2ncc3c(N4CCN(c5ccc(F)cc5)CC4)ncnc32)c1 116%
CC(Sc1nc2ncccc2o1)C(=O)N1CCCc2ccccc21 (configuration not stated) 73.8%
Cc1cccc(-c2nc(NC(=O)C(C)Oc3ccccc3Cl)no2)c1 (configuration not stated) 91.3%
CN(C)/C=N/c1c(C#N)cnn1-c1ncnc2sc(-c3ccccc3)cc12 120%
CCc1nc2ccc(NC(=O)c3cc(-c4ccccn4)n[nH]3)cc2[nH]1 44.4%
Cc1ccccc1-c1nc(NC(=O)COc2ccc(C(C)C)cc2)no1 101%
O=C(CSc1nc2c(oc3ccccc32)c(=O)n1CC1CCCO1)Nc1ccccc1F (configuration not stated) 102%
CCOc1ccccc1/C=N/NC(=O)CNC(=O)c1ccc(S(=O)(=O)N(CC)CC)cc1 68.9%
O=C(Nc1ncc(S(=O)(=O)c2ccc([N+](=O)[O-])cc2)s1)c1cccc(F)c1 78.8%
Cc1ccc(-c2c(C(F)(F)F)nn3c(N4CCN(c5ccccn5)CC4)cc(C)nc23)cc1 115%
NC(=O)c1ccsc1NC(=O)CCSc1ccc(F)cc1 103%
CCOC(=O)c1cc(NC(=O)Nc2ccc(I)cc2)c(C)nc1C 67.6%
Cc1ccccc1-c1ncccc1C(=O)N1CCC(C(=O)NC2CCCCCC2)CC1 91.3%
O=C(CCN1CCCCC1)Nc1c(-c2ccccc2)c2cc(Br)ccc2[nH]c1=O 113%
O=C(Nc1ccccc1Cl)C1CCN(c2c3c(nc4ncnn24)CCC3)CC1 76%
COc1ccccc1CNC(=O)C(=O)NCC1OCCN1C(=O)c1ccc2c(c1)OCO2 (configuration not stated) 98.5%
COc1ccccc1N1CCN(c2cc(C)nc3nc(Cc4cccc(F)c4)nn23)CC1 78%
Cc1ccc2nc(NCc3ccccc3)c(/C=N/c3cccc(Cl)c3)c(=O)n2c1 119%
Cc1c(C(=O)O)sc2ncnc(NCCc3ccsc3)c12 96.8%
CCc1cc(-c2csc(S(=O)(=O)N(Cc3ccccc3)C(C)C)c2)on1 78.8%
COC(=O)c1ccc(CSC(=S)NC2CCS(=O)(=O)C2)cc1 (configuration not stated) 76.2%
O=C(Nc1cccc(Cl)c1)C1CCN(C(=O)NC2CCCCC2)CC1 91.4%
COc1cc(C)c(CNC(=O)c2c(-c3ccncc3)noc2C)cc1C(C)C 120%
O=C(Oc1ccc2ccc(=O)oc2c1)c1ccc(Cl)cc1 105%
COc1ccc(OC)c2[nH]c(=O)c(CCNC(=O)/C=C\c3ccccc3)cc12 78.6%
C=CCn1c(SCC(=O)N2CCN(CCO)CC2)nc2sc3c(c2c1=O)CCC3 97.1%
Cc1cccn2c(=O)c(C=O)c(N3CCCC3)nc12 144%
Cc1cc2c(c(=O)[nH]1)C(c1ccccc1)C(C#N)=C(N)O2 (configuration not stated) 136%
c1ccc2c(c1)c(NCc1ccncc1)nn1cnnc21 100%
Cc1ccc(-c2noc(-c3cnn4c(C)c(Cc5ccccc5C)c(C)nc34)n2)cc1 84.3%
CCOc1ccc(-c2c(C)nn3c(C)c(C(=O)NCc4cccnc4)cnc23)cc1OCC 85.9%
CCOc1ccc(-c2noc(CCn3c(=O)[nH]c4ccccc4c3=O)n2)cc1OC 128%
O=C(c1ccc(Cl)cc1)C1CCN(C(=O)Nc2ccc(F)cc2F)CC1 92.7%
O=C(CCOc1ccccc1)Nc1nnc(-c2cc(Cl)ccc2Cl)o1 80.8%
Cc1ccc(NC(=O)CC2SC3=NCCN3C2=O)cc1 (configuration not stated) 96%
CCOC(=O)C1=C(c2ccccc2)OC(N)=C(C#N)C1c1ccccc1 (configuration not stated) 108%
COc1ccccc1C(=O)Nc1ccc(Nc2cc(N(C)C)nc(C)n2)cc1 83.9%
CCc1c(C)nc(SCC(=O)N2CCCCCC2)[nH]c1=O 97.5%
COc1ccc(CNC(=O)C2CCCN(c3nccc4c(C)nn(C)c34)C2)c(OC)c1 (configuration not stated) 103%
CCOC(=O)c1ccc(NC(=O)c2ccc(SCCN3CCOCC3)nc2)cc1 114%
COc1cccc(-c2cc3nc(C)cc(NCc4cccnc4)n3n2)c1 47.2%
Cc1ccc(C(C)C)c(OCC(=O)N/N=C2/C(=O)N(C)c3ccccc32)c1 93.2%
Cc1nn(C)c(C)c1CNC(=O)c1cc2n(n1)CCCN(Cc1ccc(F)cc1)C2=O 99.6%
COCCn1/c(=N/C(=O)c2ccc([N+](=O)[O-])s2)sc2cc(F)ccc21 101%
CC(=O)NNc1nc(-c2ccccc2)c2cc(Cl)ccc2n1 76.8%
CCN1C(=O)C(C)(C)COc2ccc(NC(=O)CCc3ccc(OC)cc3)cc21 71.6%
COc1cccc(C(c2sc3nc(C)nn3c2O)N2CCOCC2)c1 (configuration not stated) 94.1%
COc1ccc(-c2c(C#N)c(SCC(N)=O)nc(C)c2C(=O)Nc2ccccc2)cc1OC 90.5%
Cc1nc2ccn(Cc3ccccc3)c(=O)c2cc1C(=O)NC1CCCC1 125%
O=C(Cn1ccn(-c2ccc(Br)cc2)c(=O)c1=O)Nc1ccccc1Cl 114%
COC(=O)c1ccc(C2NC(=O)NC(O)(C(F)(F)F)C2C(=O)c2ccc(F)cc2)cc1 (configuration not stated) 94.5%
Cc1nc(SCC(=O)c2ccc(Cl)cc2)c(C#N)c(C)c1C 83.2%
O=C(Nc1ccccc1-c1ccccc1)C1CCN(c2cnccn2)CC1 96.1%
O=C1Nc2c(Br)cc(Br)cc2/C1=N\NC(=O)c1ccco1 109%
NC(=O)c1ccc(NC(=O)CSc2nc3ccccc3o2)cc1 146%
Cc1ccccc1NC(=O)Cn1cc(S(=O)(=O)c2ccc(F)cc2)c(=O)c2cc3c(cc21)OCO3 129%
COc1ccc(Nc2nnc(Cc3ccc(F)cc3)c(=O)[nH]2)cc1OC 7.98%
Cc1occc1-c1nnc2sc(-c3ccc(-c4cccc([N+](=O)[O-])c4)o3)nn12 97.3%
Cc1ccc(CNC(=O)N2CCC(n3cnc4cccnc43)CC2)cc1 53.3%
COc1ccccc1NC(=O)N(CC(=O)Nc1sc(C)c(C)c1C(N)=O)C1CCCC1 76.9%
COc1ccc(C(=O)N2CN(CCCn3ccnc3)Cc3c2sc(C)c3C)cc1 93.2%
CCOC(=O)C1CCN(c2nnc(N3CCCCC3)c3ccccc23)CC1 41.3%
O=C(CSc1ncccc1C(=O)O)Nc1nc2c(s1)CCCC2 107%
O=c1[nH]ncc(N/N=C\c2ccc(O)cc2)c1Cl 101%
NC(=O)c1nc(Nc2ccccc2)sc1NC(=O)C1CCCCC1 90.7%
O=C(CSc1nc(-c2ccc3c(c2)OCO3)nc2cc(=O)[nH]n12)NCCCc1ccccc1 129%
COc1ccc(/C=N/Nc2ncnc3[nH]cnc23)c(OC)c1 102%
O=C(O)c1cc(Nc2nc(-c3ccccc3)c3cc(Br)ccc3n2)ccc1O 98%
Cc1oc(-c2ccno2)cc1S(=O)(=O)NCC1CCCO1 (configuration not stated) 112%
O=C(CSc1nncc(=O)[nH]1)Nc1cccc(Cl)c1Cl 105%
CCCn1cnc2cc(-c3noc(CNC(=O)Cc4ccc(Cl)cc4)n3)ccc21 25.8%
CCc1ccc(N2C(=O)CC(Sc3ncccc3C(=O)O)C2=O)cc1 (configuration not stated) 108%
O=c1[nH]c2ccc(S(=O)(=O)N3CCc4nc(N5CCCCC5)ncc4C3)cc2o1 83.2%
O=C(Cn1cc(C(=O)c2ccccc2)c(=O)c2cc3c(cc21)OCCO3)Nc1ccc2c(c1)OCO2 117%
COc1ccc(Cl)c2sc(N(Cc3cccnc3)C(=O)c3c(F)cccc3F)nc12 29.6%
O=C(O)c1ccccc1SC1CC(=O)N(c2ccc([N+](=O)[O-])cc2)C1=O (configuration not stated) 111%
N=c1oc2c3c4c(cc2cc1C(=O)Nc1cccc(Cl)c1Cl)CCCN4CCC3 121%
CCc1ccc2nc(NCCCNC(=O)C3CCCO3)c(C#N)cc2c1 (configuration not stated) 125%
COc1ccccc1C1Nc2ccc(Br)cc2[C@H]2OCCC[C@@H]12 (some centres not stated) 49.2%
O=C1NC2=C(C(=O)N(CC3CCCO3)C2)C(c2ccccc2)N1 (configuration not stated) 107%
Cc1ccc(CNC(=O)CSc2nc(=O)[nH]cc2C)cc1 111%
CC1(C)CC(=O)C2=C(C1)OC(N)=C(C#N)C2c1cccs1 (configuration not stated) 93.8%
COc1ccc(-c2cc(=O)c3ccc(NC(C)=O)cc3o2)cc1 128%
Cc1nc2ccc3nc(NC(=O)/C=C/c4ccccc4Cl)sc3c2s1 118%
O=C(Nc1nc2c(cc3c4c(cccc42)CC3)s1)c1cc2ccccc2oc1=O 108%
CCOC(=O)C1CCCN(C(=O)C(=O)c2c(C)n(C)c3ccccc23)C1 (configuration not stated) 82.8%
CC1CCN(C(=O)Cn2c3c(c(=O)n4ncnc24)CCC3)CC1 129%
Cc1ccc(C)c(N(CC(=O)NCCc2ccccc2)C(=O)c2csnn2)c1 63.4%
CC(C)NC(=O)Cn1c2c(c(=O)n3ncnc13)CCC2 104%
CSc1nc2ccc3nc(NC(=O)c4ccc(C#N)cc4)sc3c2s1 117%
COc1ccccc1N1CCN(c2nn3cnnc3c3ccccc23)CC1 94.3%
Cc1ccc(S(=O)(=O)Nc2ccc3nnc(-c4ccccc4)n3n2)c(C)c1 106%

2 compounds drawn at random from those above:
Intracellular bacterial bioluminescence, inactive:
CC(C)NC(=O)Cn1c2c(c(=O)n3ncnc13)CCC2 104%
O=C(Nc1nc2c(cc3c4c(cccc42)CC3)s1)c1cc2ccccc2oc1=O 108%

In the list so far, five have a COOH group.
Intracellular bacterial bioluminescence, inactive:
Cc1c(C(=O)O)sc2ncnc(NCCc3ccsc3)c12 96.8%
O=C(CSc1ncccc1C(=O)O)Nc1nc2c(s1)CCCC2 107%
O=C(O)c1cc(Nc2nc(-c3ccccc3)c3cc(Br)ccc3n2)ccc1O 98%
CCc1ccc(N2C(=O)CC(Sc3ncccc3C(=O)O)C2=O)cc1 (configuration not stated) 108%
O=C(O)c1ccccc1SC1CC(=O)N(c2ccc([N+](=O)[O-])cc2)C1=O (configuration not stated) 111%
